# In all, about 53,000 sequences went through this assay and about 3,700 (7%) were called active.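 The calls were made as follows: active = gene knockdowns whose robust z-score for IL-1 alpha signal is at least 2 or at most -2, so actives lie on both sides; inactive = the rest.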 This is one part of the list.
# Assay: Components of the Cytosolic LPS Sensing Pathway: Gene Identification via Genome-wide siRNA Screen;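 also: robust z of the log signal after scaling to non-targeting control siRNA wells of the plate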
# Details: RAW264.7 macrophages, IL-1a HTRF, actives lie on both sides, screened at 100 nM (by protocol), cells primed 5 h with Pam3CSK4 first
# Outline: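 Mouse macrophage line RAW264.7 is transfected with siRNA (100 nM final), grown 48h, primed with TLR ligand Pam3CSK4 5 h and given intracellular LipidA 24 h. IL-1a in supernatant is read by HTRF and viability by luminescence.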
row,Sequence,z-score
1,GCGCAUUAAGGCAGAAAAGTT against Chaf1a,inactive: -0.931
2,CCAGGAAGUUACAAUUCAATT against Ccpg1,inactive: 0.181
3,CGGUAUCUUGGUCAACCUGTT against Naaa,inactive: 0.955
4,GGGAUAGCUGUCACCUUCUTT against Rad9a,inactive: -0.742
5,GCUGUUUUGAGGAGCCUUCTT against Zfp410,inactive: -0.962
6,GCUCACUGAAUCUCUACAUTT against Amph,inactive: -1.25
7,GGGAUACUUUUUAUUCAGGTT against Nmu,inactive: -0.0461
8,CGAGGUCAUCAUCAUCGAATT against Kyat1,inactive: -0.104
9,GGAAGUCCGUGUUAAGAUUTT against Adh7,inactive: -0.755
10,GGCUGUCCGGUUAAAUCCATT against Ifit1,inactive: 0.261
11,GCGACAUAAACAUUGUGGUTT against Adamts18,inactive: 1.32
12,GAGAGUGUGCUUCACACACTT against Olfr646,inactive: -0.339
13,GGUAUUUUGUAGCACUUAATT against Fgf20,inactive: 0.00656
14,CCCUGUAACCAAUAAGAAGTT against Snrpa1,inactive: -0.401
15,GGGUUGGAGAUAGGUUUUUTT against Rundc1,inactive: 1.53
16,CGGAUGCCGCUGAUAAGAUTT against Pofut2,inactive: 0.215
17,GGCAGUUAGAUGUCAGUGCTT against Edn1,inactive: 0.78
18,GGUCAAUACCAUGUGUAUUTT against Rev1,inactive: 0.617
19,GCCUACUUGGAUGUUAAUGTT against Pappa,inactive: 0.964
20,CCCAACUAUACUGUCUACUTT against Slc22a6,inactive: 0.988
21,GGAUCUCCAGAGCAGAAAATT against Nckap5,inactive: -1.64
22,GGACUUUUCUUUUGGAAGGTT against Nbl1,inactive: -0.08

# Exported bar-delimited: entries from further up.
row | Sequence | z-score
2 | CCAGGAAGUUACAAUUCAATT against Ccpg1 | inactive: 0.181
9 | GGAAGUCCGUGUUAAGAUUTT against Adh7 | inactive: -0.755
11 | GCGACAUAAACAUUGUGGUTT against Adamts18 | inactive: 1.32
22 | GGACUUUUCUUUUGGAAGGTT against Nbl1 | inactive: -0.08

# (listing goes on)

row,Sequence,z-score
1,GCAUUUGGUUCGACAUAUATT against Pcnx,inactive: -0.187
2,GGUUGAUGGGUAAUAAACUTT against Nfatc4,active: -2.16
3,CCUGGUACCUCGAUUCCAUTT against Lcn9,inactive: 0.762
4,GGAAUCCAUGCAGAAAUAATT against Pcdhga6,inactive: 0.681
5,GGCCAUCCAAGCAUGAGUUTT against Rbfa,inactive: 1.37
6,GGGCAUAGACAGUACCAGUTT against Clec2m,active: -2.04
7,CCAAGUUUCAGAAGGAUUATT against Niban1,inactive: -0.0593
8,UGCCGCUGCUGAUCCUUACTT against Rbfox3,inactive: -1.87
9,GGAGAAGAUUUUCUGUAUCTT against Atp13a5,inactive: 0.545
10,GGUUUCAGAUGAGAAUGUATT against Mybpc3,inactive: -0.561
11,GCAGUUGUCACUGGCAAGUTT against Aqp2,active: 2.21
12,GGAAUUGAACAAAACCAUCTT against Slfn9,inactive: 1.32
13,GCAUCUCGCCACAUCUUGATT against Prm1,inactive: -0.54
14,GCUUGGAGGAUACAUUCACTT against Gjb2,inactive: 1.76
15,CCGAAGGUGUUCAAAAUUCTT against Mbl2,inactive: 1.32
16,GGCCUUCCUUGACCAAUCUTT against Ren1,active: -2.11
17,GCAGCACGUUGAAAUGAGUTT against Dpp4,inactive: -1.62
18,GGUGGUUGUUGAAUAUAAUTT against Habp4,inactive: 0.303
19,GGUCAUAAGAAGCUCAAGATT against Serpinb9d,inactive: 0.268
20,GGGUUGCCAAGACUUGAUATT against Cd177,inactive: -1.06
21,GGAUGAAACUCCUACCACATT against Rnf112,inactive: -0.785
22,CGAUGAUUCCAAGUUUGGCTT against Pinx1,inactive: -0.291

row,Sequence,z-score
1,GCUACUUAAGGGUUUGGAUTT against Pcdhb3,active: 4.67
2,GGCAGGUGUCAGAAAUUUCTT against Pisd,inactive: -0.357
3,CCAACCUAAGCACUCCAAATT against Setd1a,inactive: -1.14
4,GCACCUGGUGAAUUUUACCTT against Tmem106c,inactive: -0.85
5,GCAGAGACUACUUAGCAAGTT against Adprm,active: 2.29
6,GGUAUUUUGAUGUUGGACUTT against Hhat,inactive: 0.989
7,GGAACAGAGGAGGUAAAGCTT against Gtpbp2,inactive: -1.99
8,CGGGAUUCAUAGAAACAAATT against Dclk1,inactive: 0.624
9,GGCCUUUUAUCAACGCAGUTT against Npc1l1,inactive: 0.0833
10,GCAGAUCACUGGAGUAAACTT against Spz1,inactive: -0.381
11,GGUGAUUGCCCACAAUCAGTT against Mthfs,inactive: -0.554
12,GGUUCAAUUCACAGAGCGCTT against Mrpl21,inactive: 1.37
13,GCAGUGGAAGUGAAUCUCGTT against Rwdd4a,inactive: 0.169
14,GGUGUCUUAUGAGCAAUAUTT against Pdcd6,inactive: -1.12
15,GGACACAGUCAGACAAAUCTT against Olfr1161,inactive: -1.93
16,GGCUUCCACAUAAAAACGATT against Dctpp1,inactive: 0.474
17,GGUUAUGCAUUACUCUCUUTT against Prkdc,inactive: 0.0207
18,GCAUUUGAACAGUGUGCCATT against Zbtb8os,inactive: -1.61
19,GCAUCGACAAAUGAAUUGGTT against Pyurf,inactive: -0.973
20,GGUCACCACCAUAGCAAGGTT against Gstt4,inactive: 0.485
21,CCGUGCAGAUUAACUUCUUTT against Plk1,inactive: -1.69
22,GCCUCAUUUAUCAUGCGCGTT against Zfp772,inactive: 0.523

row,Sequence,z-score
1,GGCAGUUUGGACAGCAAGATT against Mybl2,inactive: 0.207
2,GGGAAAAUCCCAAAACUGUTT against Serpinb1a,inactive: -0.159
3,CCUCCUCUAGGGUAGGUAGTT against Pitpnm3,inactive: -1.24
4,GGUUACUUCAAAGACAAAGTT against Med31,inactive: 1.06
5,GGAGGAUCCUCUAAAACAGTT against Slc23a3,inactive: -1.21
6,GGUCACAUUUAAUGUCACATT against Itgam,inactive: -0.789
7,GGAGGUAUUCACAGAACUGTT against U2af1l4,inactive: 0.532
8,CCUGUCGUUUAACCCUGUCTT against Fis1,inactive: -0.96
9,CCAUGCCCACUGGAUAGAUTT against Nat14,inactive: -1.21
10,GCCCAUGUGUAAUACAUUUTT against Prps1,inactive: 0.789
11,AGGUAGAAAAACAAUACCGTT against Ikbip,inactive: 1.48
12,GGGCUUGUUUUUGCACUUATT against Blcap,inactive: 0.993
13,GGCUGUGCCAAUUUAAUUUTT against Dsn1,inactive: 0.0219
14,GGCCAUCGCACUUAAACUUTT against 1700123K08Rik,inactive: -0.578
15,GGCUGGAAAAUCAAUUCUUTT against St8sia4,inactive: -0.59
16,GGAGAAAAGAGUUUGCCCGTT against Wfdc12,inactive: -0.329
17,GGAGCUACGAAAAUUAACATT against Thsd4,inactive: -0.138
18,GGAGAGUACAAGGUAUCUUTT against Tab2,inactive: 0.122
19,GGCAUGUUCCUCAUAUGCCTT against Lrit1,active: -2.01
20,GGGAGAUAAAAAGUUAAGGTT against Bclaf1,inactive: 1.38
21,GGACUCAAGGAACCAAAAUTT against Rps3a1,inactive: -0.758
22,GGGUGAAGGACAAGAAAAUTT against Hoxd13,inactive: 0.625

row,Sequence,z-score
1,GGAAGAAAUGAGAAGGAUATT against Cadm3,inactive: 0.139
2,GGAAGACAUAUUUCAACAGTT against Ehhadh,inactive: -1.37
3,GGCAUGUUGGAGGUAAUAATT against Nanp,inactive: 0.107
4,GCGAGGACAACGGAUUUUATT against Barhl2,inactive: -0.212
5,GGUCUCACAAAAACAGUUCTT against Casq2,inactive: -0.317
6,GGAAGUGUGACAGAAUGCGTT against Loxl3,inactive: -1.29
7,GGAGUUACGGGAUUCCGUUTT against Kras,inactive: 1.7
8,GGUUCUUACUUGUAAAUAGTT against Sdad1,inactive: -1.32
9,GCAACCUCUCCUCUCUAGATT against Olfr15,inactive: -1.11
10,GGAGCAAUGGCUAGCAGUUTT against 3110040N11Rik,inactive: 0.0159
11,GGCAGUCGAUACAAACUUUTT against Fto,inactive: -0.481
12,CCUAGAGCUUUUCAGAAUATT against Rsl1d1,inactive: 0.4
13,GGAGCAUGGAUAAUUACAGTT against Trpm6,inactive: -0.241
14,CCAUAUGGUGGUCACGACATT against Dcstamp,inactive: 1.98
15,GGAGUUUCUCUUUAAUCCUTT against Hoxc8,inactive: 0.468
16,GCCCAAACAUGCAUAUGGCTT against 2010003K11Rik,inactive: -1.35
17,GCUCAUAUACACCAUUUCUTT against Tmem171,inactive: -1.12
18,CCCAACUGACAUCUUCCUATT against Gzmb,active: 2.86
19,CCUAAAAGGGUUUUUGCUUTT against Macroh2a3,inactive: 0.763
